In US20090011988A1 (Genentech, published 2009):
These are yes or no findings as the source states them, for the method shown. Some binding calls cover weakened binding; strength is not graded here.

Protein sequences, listed by entry. Tags and fused reporters are not part of them. Lines headed by an entry give the natural chain unless they say otherwise; changes in a name come on top. Residues count along the entry.
UniProt P17936, residues 28-291: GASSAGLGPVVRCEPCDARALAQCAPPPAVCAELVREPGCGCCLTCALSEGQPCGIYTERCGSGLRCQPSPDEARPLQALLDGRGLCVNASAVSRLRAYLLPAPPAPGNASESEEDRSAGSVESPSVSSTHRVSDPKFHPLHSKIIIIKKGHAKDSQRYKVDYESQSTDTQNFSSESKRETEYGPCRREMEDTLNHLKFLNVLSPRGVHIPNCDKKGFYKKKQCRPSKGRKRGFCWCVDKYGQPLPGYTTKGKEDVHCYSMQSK
UniProt P05019: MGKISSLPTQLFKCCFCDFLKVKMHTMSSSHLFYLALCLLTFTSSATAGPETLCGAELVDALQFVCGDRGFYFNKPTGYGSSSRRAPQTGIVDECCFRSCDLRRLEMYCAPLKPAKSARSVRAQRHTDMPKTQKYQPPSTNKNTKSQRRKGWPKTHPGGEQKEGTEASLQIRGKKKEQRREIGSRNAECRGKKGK

How the values were obtained:
[1] = molecular target: T1, recombinant human IGFBP-3 (human, UniProt P17936 28-291); experiment: phage ELISA: titration of phage displaying the IGF-1 variant on immobilized IGFBP-3; OD450
[2] = molecular target: T2, human IGFBP-1 (human, UniProt P08833 26-259); experiment: phage ELISA: titration of phage displaying the IGF-1 variant on immobilized IGFBP-1; OD450
T2 sequence (looked up): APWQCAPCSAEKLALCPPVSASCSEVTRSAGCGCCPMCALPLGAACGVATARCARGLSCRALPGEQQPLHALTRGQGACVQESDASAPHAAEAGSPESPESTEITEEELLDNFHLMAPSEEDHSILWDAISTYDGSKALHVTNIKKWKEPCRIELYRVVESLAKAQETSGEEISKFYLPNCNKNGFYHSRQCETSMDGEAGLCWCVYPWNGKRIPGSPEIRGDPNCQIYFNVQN

[3] = molecular target: T1, recombinant human IGFBP-3; experiment: phage binding to immobilized IGFBP
[4] = molecular target: T2, human IGFBP-1; experiment: phage binding to immobilized IGFBP
[5] = molecular target: T1, recombinant human IGFBP-3; experiment: phage display
[6] = molecular target: T2, human IGFBP-1; experiment: phage display

Measured: binding

D12R IGF-1 displayed on phage (from UniProt P05019 49-118) (ligand)
binds: [1] | [2] | [3] | [4]

D12K IGF-1 displayed on phage (from UniProt P05019 49-118) (ligand)
binds: [1] | [2] | [3] | [4]

Y31C IGF-1 displayed on phage (from UniProt P05019 49-118) (ligand)
binds: [5] | [6]
